Test results as given in article PMC4043118.
These are yes or no findings as the source states them, for the method shown. Some results given as binding are weak or reduced against the parent protein; the word gives no strength.

Target: T1, Pneumolysin (Streptococcus pneumoniae), P0C2J9
T1 chain: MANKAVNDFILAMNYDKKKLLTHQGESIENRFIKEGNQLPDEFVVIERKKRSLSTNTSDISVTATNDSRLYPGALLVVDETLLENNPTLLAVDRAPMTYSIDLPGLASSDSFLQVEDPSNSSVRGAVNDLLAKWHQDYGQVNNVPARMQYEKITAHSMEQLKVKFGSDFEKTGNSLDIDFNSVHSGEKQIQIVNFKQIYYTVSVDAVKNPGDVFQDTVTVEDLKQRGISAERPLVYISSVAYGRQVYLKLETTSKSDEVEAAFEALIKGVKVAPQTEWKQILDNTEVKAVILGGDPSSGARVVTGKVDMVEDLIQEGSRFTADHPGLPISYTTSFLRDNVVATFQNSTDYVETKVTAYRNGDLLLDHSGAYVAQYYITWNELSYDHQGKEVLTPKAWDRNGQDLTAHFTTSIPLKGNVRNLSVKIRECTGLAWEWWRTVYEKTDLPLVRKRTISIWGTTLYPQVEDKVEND
Test: cryo-EM structure; cryo-electron tomography with sub-tomogram classification and averaging; purified pneumolysin on liposomes (egg phosphatidylcholine : cholesterol : dicetyl phosphate 10 : 10 : 1, cholesterol to protein 100 : 1), 37°C for 5 s or 1 min, phosphate buffered saline; membrane-bound oligomers (rings and arcs, pre-pore and pore states); both purified
Settings: remark: other sources report otherwise

B1: Pneumolysin, P0C2J9 1-471 (protein)
chain: T1 chain
For B1, the binding was “binds”.
